Laboratory results from publication doi:10.1101/2024.04.19.590210.
No constants are given. Whether binding was seen depends on the method and setting. In cells and extracts the contact can be indirect. A result given as binding can be weak or reduced; the word gives no strength.

Chains of the proteins cited; added tags and fusions are not shown. Lines headed by an entry give the natural chain unless they say otherwise; changes in a name come on top.
UniProt Q39057: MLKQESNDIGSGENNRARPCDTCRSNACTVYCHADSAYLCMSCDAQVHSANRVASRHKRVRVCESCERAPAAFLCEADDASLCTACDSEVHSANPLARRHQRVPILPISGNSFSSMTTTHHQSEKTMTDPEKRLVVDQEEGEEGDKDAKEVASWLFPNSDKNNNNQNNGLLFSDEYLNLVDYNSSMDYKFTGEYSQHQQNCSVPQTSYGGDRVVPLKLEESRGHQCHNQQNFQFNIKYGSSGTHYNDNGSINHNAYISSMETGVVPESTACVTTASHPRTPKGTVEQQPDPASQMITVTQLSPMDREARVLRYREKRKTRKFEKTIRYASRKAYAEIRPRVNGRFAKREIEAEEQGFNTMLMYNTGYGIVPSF
UniProt O81834: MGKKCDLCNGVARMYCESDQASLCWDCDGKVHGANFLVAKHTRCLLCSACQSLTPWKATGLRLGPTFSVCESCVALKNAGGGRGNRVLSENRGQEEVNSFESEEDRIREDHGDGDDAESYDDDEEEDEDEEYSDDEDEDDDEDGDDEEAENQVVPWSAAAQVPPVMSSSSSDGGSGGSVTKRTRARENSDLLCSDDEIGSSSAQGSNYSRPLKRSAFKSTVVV

Molecular target: cYFP-CO (Arabidopsis thaliana) (UniProt Q39057)
Experiment: split reporter

Substance: BBX28 in pCL112 (nYFP fusion) (from UniProt O81834)
- binding: binds
